# Test results taken from article PMC11127761.
# The exact form of at least one protein or probe is not confirmed. For some assays here: A weaker result is weaker than the reference pair of the same experiment.
# What was measured:
# Neuropeptide Y (NPY) [1] = target: Neuropeptide Y (NPY) (UniProt P01303); test: binding assay; settings: 5' thiol C6 (disulfide reduced), 3' amino linker, aCSF pH 7.4 (composition by citation), SWV -0.4 to 0.0 V, 30 Hz, IPA 500 Hz in flow cell, assay temperature not stated, commercial protein, label: 3' methylene blue, immobilized on Pt via 5' thiol, single-stranded DNA
# [2] = test system: Pancreatic polypeptide (PP); test: electrochemical aptasensor (SWV, steady state); settings: 1-1000 pg/mL, no significant difference from NPY; 5' thiol C6 (disulfide reduced), 3' amino linker; aCSF pH 7.4 (composition by citation); SWV -0.4 to 0.0 V, 30 Hz; IPA 500 Hz in flow cell; assay temperature not stated; label: 3' methylene blue, immobilized on Pt via 5' thiol; single-stranded DNA
# Peptide YY (PYY) = test: electrochemical aptasensor (SWV, steady state); settings: 1-1000 pg/mL, response lower than NPY; 5' thiol C6 (disulfide reduced), 3' amino linker; aCSF pH 7.4 (composition by citation); SWV -0.4 to 0.0 V, 30 Hz; IPA 500 Hz in flow cell; assay temperature not stated; label: 3' methylene blue, immobilized on Pt via 5' thiol; single-stranded DNA
# Somatostatin (SOM) = test: electrochemical aptasensor (SWV, steady state); settings: 1-1000 pg/mL, response lower than NPY; 5' thiol C6 (disulfide reduced), 3' amino linker; aCSF pH 7.4 (composition by citation); SWV -0.4 to 0.0 V, 30 Hz; IPA 500 Hz in flow cell; assay temperature not stated; label: 3' methylene blue, immobilized on Pt via 5' thiol; single-stranded DNA
# Neuropeptide Y (NPY) [3] = target: Neuropeptide Y (NPY) (UniProt P01303); test: electrochemical aptasensor (SWV, steady state); settings: 1-1000 pg/mL, lower NPY response than 4.31, no NPY selectivity; 5' thiol C6 (disulfide reduced), 3' amino linker; aCSF pH 7.4 (composition by citation); SWV -0.4 to 0.0 V, 30 Hz; IPA 500 Hz in flow cell; assay temperature not stated; commercial protein; label: 3' methylene blue, immobilized on Pt via 5' thiol; single-stranded DNA
Sequence,Kd (Neuropeptide Y (NPY) [1]) [nM],binding result [2],binding result (Peptide YY (PYY)),binding result (Somatostatin (SOM)),"Kd (Neuropeptide Y (NPY) [1]; aptamer list gives 0.8, Results text order (4.31, 4.13, 4.20) implies 1.0) [nM]",binding result (Neuropeptide Y (NPY) [3]),"Kd (Neuropeptide Y (NPY) [1]; aptamer list gives 1.0, Results text order (4.31, 4.13, 4.20) implies 0.8) [nM]"
AGCAGCACAGAGGTCAGATGCAAACCACAGCCTGAGTGGTTAGCGTATGTCATTTACGGACCTATGCGTGCTACCGTGAA [Aptamer 4.31],300,binds,binds more weakly,binds more weakly,–,–,–
AGCAGCACAGAGGTCAGATGCGTTTTTTACGGCTGGCAACGGAAGTCAGTTTATTCTTCACCTATGCGTGCTACCGTGAA [Aptamer 4.20],–,–,–,–,800,binds more weakly,–
AGCAGCACAGAGGTCAGATGTGTTAGGCTGGGACACGTATTACACTTACCGTAAATATTTCCTATGCGTGCTACCGTGAA [Aptamer 4.13],–,–,–,–,–,binds more weakly,1000
